Drawing on PubChem BioAssay AID1347423 (Functional Genomics Laboratory (NCATS/FGL), 2020), this text covers z-score for 103 sequences.

Screen size: about 52,000 sequences; about 210 (0.4%) were called active.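 The calls were made as follows: active = gene whose silencing raises cell survival under the drug, median off-target-corrected z-score across its silencing RNAs 2 or more; inactive = the rest.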 This is one part of the list.

The experiment in a line: Resistance to Poly (ADP-Ribose) Polymerase inhibitor: Gene Identification via Genome-wide siRNA Screen. The note with it: mouse BRCA2 R2336H ES cells, olaparib, CellTiter-Glo viability; active compounds read high. The essentials: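 Mouse BRCA2 R2336H ES cells were reverse-transfected with siRNA (20 nM final), treated at 48 h with 500 nM olaparib, and read by CellTiter-Glo after 72 h. Scores: MAD-based z per siRNA, median per gene, seed off-target correction.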
(In general: ATP-based viability assays read luminescence as a measure of living cells.)
On to GGAAGCUGGUUCCUGUUUUTT against Bid3, for which the z-score is active: 2.66. With CCUUGACUGGAAUAUAUAATT against Dlc1 the figure was inactive: -1.22.

As for UCUGCCACCCUCUCCAAUATT against Olfr1116, the z-score is inactive: -0.681. Consider GCCAGUUUCCAGUCCUUGUTT against Dppa5, for which the z-score was inactive: -2.

Take CGAGGAUUAAGAGGACUUCTT against Col9a3: the z-score was inactive: 0.166. Then CCAGAUUCUAUAAUAGAGUTT against Gabrp, with inactive: -0.526; and CCUGGCAGACGUGGAACAATT against Ppp1r13l, with inactive: -0.0391; and CCUCUUCAACAAACAAGCATT against Hkr2, with inactive: 2.23. Then “GGCCCAGUUGUUAAACUCUTT against C530028O21Rik”, with inactive: -1.06; and GGCAAAGAGAUUGACAUUGTT against Kif2c, with inactive: -1.67.

As for “GGUGAUAGAGCACAAGGCUTT against G930045G22Rik”, the z-score is inactive: -0.906. With GGCACUCCAUCAAAGGCUUTT against Cd209a the figure was inactive: -0.259. With GGCUGGAUGUCCUAUAGUCTT against Adam24 the figure was inactive: -0.609; with GGUGGACUCACAUUAUUGUTT against Dctn4, inactive: 0.723; with “GGUCCAUGAACCUCAGUGUTT against F830045P16Rik”, inactive: -2.06.

As for “GCUAAUAAUGGUCAAAGCCTT against B230206N24Rik”, the z-score is inactive: -0.274. Then GCAGUCAAUUCCCUUUUACTT against Ankmy1, with inactive: 2.02. As for “GCUCACUCUUUCCAACUAUTT against C330018L13Rik”, the z-score was inactive: -1.18. Regarding GGUCGGCCAAUUACAAUGUTT against Eml4, the z-score was inactive: -0.154. Consider CCUGUUCUGCCCUAAAUUUTT against Olfr1155, for which the z-score is inactive: -0.834. With GCAGGAUGCAGCGAUAGUUTT against Slc2a6 the figure was inactive: -0.832. Take GGACAUAAAACUUUUCAGUTT against Foxf2: the z-score is inactive: 0.918. In the case of GGAAUUAAGUCAUCAGGAATT against Slc6a5, the z-score was inactive: -0.265. Then “GGACUUCUAAAAAUCUCUGTT against C030002O17Rik”, with inactive: -1.54; and “CGGAACAUGGAGUUUAAGCTT against 4933406A14Rik”, with inactive: 0.194. Then “GGAAAAAAAAGUCUUCCUATT against 4932418K24Rik”, with inactive: 0.697.

Regarding “GCAGUUUCGUUCCUACUCGTT against D11Ertd497e”, the z-score was inactive: -0.118. With “GGUGAUCUAGAAACAACCCTT against 1700095F04Rik” the figure was inactive: 0.875; with CAAAGGAUGGCUGGUCAGATT against Sctr, inactive: -0.459; with CCUACUGAUGUACACUGGATT against Fgf20, inactive: -0.728. Then “GGUGGGCUACGAACUAAAGTT against 1500019O16Rik”, with inactive: -0.112; and GGUUGUGCCAGAGGAGAUUTT against Scrib, with inactive: -0.364; and GCGAUCUAGAAAUUGACAATT against St13, with inactive: -0.16. Take CCAAUCUUAGUCAUCCAUUTT against Foxo6: the z-score is inactive: 0.0585. In the case of CCACGUUUACACCAACGUGTT against BC044804, the z-score is inactive: 0.928. Then GCAACAGCUUUAGAGUGACTT against B3gnt4, with inactive: 0.812; and CGAUAAAAAUGAAUGGGACTT against Cyp17a1, with inactive: 0.26. Then UAAUGGCUGCUGUCUCCUGTT against Olfr441, with inactive: -1.3; and GGGCAACUACCUCUUUCGATT against Lrrc20, with inactive: 0.497; and GCGGGAGCUUAGCUUUUAUTT against G6pc3, with inactive: 0.973.

Take GGAUCUCAGUGAAGGAGGUTT against Egfl9: the z-score is inactive: -0.589. Then CGUCUACCCGGAAUUUCAGTT against Sdha, with inactive: -1.84; and CGUGGUUCAGUUUCAUCAATT against Cox7a2, with inactive: -0.171; and GCAACUUGGAAUGUUAUCUTT against Adh4, with inactive: 0.0952. Then GGUUUGUUUUCAGAUGAAGTT against D6Wsu116e, with inactive: 0.397. With GGACAUGCAAAGAUACCGGTT against Ogfr the figure was inactive: -0.804; with GGUUCUGAUUUCAUUUGAUTT against Pkia, inactive: -0.7; with CCUGGUGGAUUGUUGGUGUTT against Guca1b, inactive: -0.293. Consider GGCCUUGAAUGAGCAUCAUTT against Hrb2, for which the z-score is inactive: -1.57. With GCUUAACCGUUUUUUCAAATT against Tgif the figure was inactive: 0.555; with GCAUCACUGGAAAUCUUACTT against Olfr807, inactive: 0.0483. With CCAACAGUAGAUAAAAAGCTT against Sesn1 the figure was inactive: 0.289; with “GCAUUCAUUUGAGCUCGGUTT against 2310044H10Rik”, inactive: 0.245; with GGCUUUACAUUUUCAUUGUTT against Olfr993, inactive: -0.337. In the case of GCAAGAAAUGGACAAUUACTT against Gkap1, the z-score is inactive: -0.653. Then “GUUAGAUGCCCUCAAGUUCTT against 1810073E21Rik”, with inactive: 0.297. With GCCUCAUUGAAAGGAUCCATT against GnT-IX the figure was inactive: -0.888; with “GGAUGUACAAUAAUUGGGATT against A430089I19Rik”, inactive: 0.461; with GCUUUACCUCCUAUUAAUATT against Rgs9bp, inactive: 0.402.

Turning to GGUAUGUAACGGUAUUUAATT against Gja1, the z-score was inactive: 1.59. Then GGCUGUUUGUGGUAUAGGUTT against Lrrc3, with inactive: 1.52. Regarding GGGAAUCGGCCUGAAGAAATT against Arl6ip5, the z-score was inactive: -0.707.

Turning to “GCUUCAAUAACUGCGCAAGTT against 9430065N20Rik”, the z-score is inactive: -0.203.

For the sequence “GGAUACCAUAGCAGAUCCATT against B430104H02Rik”, the z-score is inactive: 0.812. With GGAUUCCAAGCUUUCGAAATT against Golph4 the figure was inactive: 0.328; with “GGUUCUCCAAGGAAAGAGGTT against 2310002L09Rik”, inactive: -0.864.

Take GCAGUUCCCAUAGUUUUCUTT against Il1r2: the z-score was inactive: 2.37. Then “GGUGCUUUAAAGAAAAUGCTT against 5730528L13Rik”, with inactive: 0.328; and CCCAAAUCGUAGCUGAUGATT against Cadps, with inactive: 1.29; and “GGUACUGGAUCAAAGAAACTT against RP23-219P13.3”, with inactive: 0.000352. Take GCUACAAUGUAGGUCUCAGTT against Rsbn: the z-score was inactive: -0.36. For the sequence GGGCUAUGUUCGAAGUAAATT against Kbtbd3, the z-score was inactive: -0.485. Then GCGGAUUCACUUCUACUACTT against Asah3, with inactive: -0.526.

In the case of GGUGGACUCUGUUUAAAAATT against Mtnr1a, the z-score was inactive: -0.382. In the case of GGUUCAGUUUUGGCUGGCUTT against Olfr558, the z-score was inactive: -0.333. In the case of GGAUACAUUAAGGUGCAAGTT against Aldh1a7, the z-score was inactive: 1.71.

For the sequence “GGACACCAAAAGCUAAGUGTT against 1810031K17Rik”, the z-score was inactive: -0.829. For the sequence GGUGGCUCUGGUUAAACUCTT against BC060631, the z-score was inactive: -0.227.

Regarding GGUUCUUUCGAGAAUGGACTT against Card4, the z-score was inactive: 1.97. Then GGACAGAUUGUGGAAACCUTT against Catns, with inactive: -1.54; and CCCAGAUACGCUAUUCGGUTT against Pcdhga12, with inactive: 0.339. Then GGAAAUGAGACGAAGGAGGTT against Kpna6, with inactive: -0.323; and “GGAGAGUUUGUCAUUAGUUTT against 5031400M07Rik”, with inactive: -0.807; and “GGAAGAUCCUUGGAAAAUUTT against 2810439K08Rik”, with inactive: 0.154. Consider GCCCUAAUUAGCUUUUUGUTT against Gpr68, for which the z-score was inactive: 0.425. GUAAUCACCUUAAAGAUGUTT against Cebpb: the z-score is inactive: 0.504. With GGGCAAGAAACCUCUUAACTT against Synpo2 the figure was inactive: -0.679; with GGGUCAUCCAAUAUUUUGCTT against Myh7, inactive: 0.473.

With GGAGAAAAAUAUUCUCUACTT against Olfr1094, the z-score is inactive: 0.822.

Consider CCGGCUAUCUUUGAGAUGGTT against Kif3c, for which the z-score was inactive: -0.48.

Take CCAUUAGGAUCCCUUAGGGTT against AY534253: the z-score is inactive: 1.2.

Regarding GGACUUCAAGUGGCUGAAGTT against Siat6, the z-score was inactive: 1.69.

As for “GGUUGUUGGAAAAAUAGAUTT against 3010001K23Rik”, the z-score is inactive: -1.91. With GGCAACAUUGAACAUGCCUTT against Stambp the figure was inactive: -0.472. With “GCAAUAGUAUGGUAAGUUATT against F730015K02Rik” the figure was inactive: -0.985; with “CCACAGUGAGCCAUCGAUATT against Slfn8-pending”, inactive: 0.124; with AUUCAUGUGGGCUUGUUAGTT against Olfr198, inactive: 0.66. Then CGGGUGAUGCCUAUGUCAUTT against Gsn, with inactive: 1.85. Take GGAGACUUUGUUCAUGACATT against Tacr2: the z-score was inactive: 2.03.

Turning to CCCAUUAGACCCAAGUUGGTT against Inpp5e, the z-score was inactive: -0.0923. With GGAUGACCGUAUUGUGCUUTT against Actc1 the figure was inactive: -1.01.

On to GGAAUCGAUGUUAACAUAATT against Anks1, for which the z-score is inactive: 1.13. Then GCAUAUUCUCACGUUUUCCTT against Mrgpra6, with inactive: 0.895.
